# This is one part of the list.
# B1: CD23 (Homo sapiens) (protein)
# chain: MELQVSSGFVCNTCPEKWINFQRKCYYFGKGTKQWVHARYACDDMEGQLVSIHSPEEQDFLTKRASHTGSWIGLRNLDLKGEFIWVDGSHVDYSNWAPGEPTSRSQSEDCVMMRGSGRWNDAFCDRKLGAWVCDRLATCTPPASEGSAESMGPDSRPDPDGRLPTPSAPLHS
# How the values were obtained:
# Test in all cases: glycan array binding signal (z-score within array); higher = stronger binding
# Conditions in all cases: glycan notation: IUPAC condensed, linker removed; mutation: H213R,G256S
# Fuc(a1-2)Gal = biological target: Fuc(a1-2)Gal
# How it was run: (§1)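 Columns mapping to the same glycan were averaged after glycan names were converted to IUPAC-condensed notation. The data come from 3228 arrays in the Consortium for Functional Glycomics database, limited to those with an available protein sequence. Binding is reported as a within-array Z-score averaged across arrays of one protein sequence and across linkers.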
# Fuc(a1-2)Gal(b1-3)GalNAc = biological target: Fuc(a1-2)Gal(b1-3)GalNAc
# How it was run: as §1
# [1] = biological target: Fuc(a1-2)Gal(b1-3)GalNAc(b1-3)Gal
# How it was run: as §1
# [2] = biological target: Fuc(a1-2)Gal(b1-3)GalNAc(b1-3)Gal(a1-4)Gal(b1-4)Glc
# How it was run: as §1
# [3] = biological target: Fuc(a1-2)Gal(b1-3)GalNAc(b1-4)[Neu5Ac(a2-3)]Gal(b1-4)Glc
# How it was run: as §1
# Fuc(a1-2)Gal(b1-3)GlcNAc = biological target: Fuc(a1-2)Gal(b1-3)GlcNAc
# How it was run: as §1
# [4] = biological target: Fuc(a1-2)Gal(b1-3)GlcNAc(b1-3)Gal(b1-4)Glc
# How it was run: as §1
# [5] = biological target: Fuc(a1-2)Gal(b1-3)[Fuc(a1-4)]GlcNAc
# How it was run: as §1
# Fuc(a1-2)Gal(b1-4)Glc = biological target: Fuc(a1-2)Gal(b1-4)Glc
# How it was run: as §1
# Fuc(a1-2)Gal(b1-4)Glc6S = biological target: Fuc(a1-2)Gal(b1-4)Glc6S
# How it was run: as §1
# Fuc(a1-2)Gal(b1-4)GlcNAc = biological target: Fuc(a1-2)Gal(b1-4)GlcNAc
# How it was run: as §1
# [6] = biological target: Fuc(a1-2)Gal(b1-4)GlcNAc(b1-3)Gal(b1-4)GlcNAc
# How it was run: as §1
# [7] = biological target: Fuc(a1-2)Gal(b1-4)GlcNAc(b1-3)Gal(b1-4)GlcNAc(b1-3)Gal(b1-4)GlcNAc
# How it was run: as §1
# [8] = biological target: Fuc(a1-2)Gal(b1-4)GlcNAc6S
# How it was run: as §1
# [9] = biological target: Fuc(a1-2)Gal(b1-4)[Fuc(a1-3)]GlcNAc
# How it was run: as §1
# [10] = biological target: Fuc(a1-2)Gal(b1-4)[Fuc(a1-3)]GlcNAc(b1-3)Gal(b1-4)[Fuc(a1-3)]GlcNAc
# How it was run: as §1
# [11] = biological target: Fuc(a1-2)Gal(b1-4)[Fuc(a1-3)]GlcNAc(b1-3)Gal(b1-4)[Fuc(a1-3)]GlcNAc(b1-3)Gal(b1-4)[Fuc(a1-3)]GlcNAc
# How it was run: as §1
# Fuc(a1-2)Gal6S(b1-4)Glc = biological target: Fuc(a1-2)Gal6S(b1-4)Glc
# How it was run: as §1
# [12] = biological target: Fuc(a1-2)Gal6S(b1-4)Glc6S
# How it was run: as §1
# [13] = biological target: Fuc(a1-2)Gal6S(b1-4)GlcNAc
# How it was run: as §1
# Fuc(a1-2)[Gal(a1-3)]Gal = biological target: Fuc(a1-2)[Gal(a1-3)]Gal
# How it was run: as §1
# [14] = biological target: Fuc(a1-2)[Gal(a1-3)]Gal(b1-3)GlcNAc
# How it was run: as §1
# [15] = biological target: Fuc(a1-2)[Gal(a1-3)]Gal(b1-4)Glc
# How it was run: as §1
# [16] = biological target: Fuc(a1-2)[Gal(a1-3)]Gal(b1-4)GlcNAc
# How it was run: as §1
# [17] = biological target: Fuc(a1-2)[Gal(a1-3)]Gal(b1-4)[Fuc(a1-3)]GlcNAc
# How it was run: as §1
# [18] = biological target: Fuc(a1-2)[Gal(a1-4)]Gal(b1-4)GlcNAc
# How it was run: as §1
# [19] = biological target: Fuc(a1-2)[GalNAc(a1-3)]Gal
# How it was run: as §1
# [20] = biological target: Fuc(a1-2)[GalNAc(a1-3)]Gal(b1-3)GlcNAc
# How it was run: as §1
# [21] = biological target: Fuc(a1-2)[GalNAc(a1-3)]Gal(b1-4)Glc
# How it was run: as §1
# [22] = biological target: Fuc(a1-2)[GalNAc(a1-3)]Gal(b1-4)GlcNAc
# How it was run: as §1
# [23] = biological target: Fuc(a1-2)[GalNAc(a1-3)]Gal(b1-4)[Fuc(a1-3)]GlcNAc
# How it was run: as §1
# [24] = biological target: Fuc(a1-2)[GalNAc(a1-4)]Gal(b1-4)GlcNAc
# How it was run: as §1
# [25] = biological target: Fuc(a1-2)[GalNAc(b1-3)]Gal
# How it was run: as §1
# Fuc(a1-3)GlcNAc = biological target: Fuc(a1-3)GlcNAc
# How it was run: as §1
# [26] = biological target: Fuc(a1-3)[Gal(b1-4)]Glc6S
# How it was run: as §1
# [27] = biological target: Fuc(a1-3)[Gal(b1-4)]GlcNAc
# How it was run: as §1
# [28] = biological target: Fuc(a1-3)[Gal(b1-4)]GlcNAc(b1-3)Gal(b1-3)[Fuc(a1-4)]GlcNAc
# How it was run: as §1
# [29] = biological target: Fuc(a1-3)[Gal(b1-4)]GlcNAc(b1-4)Gal(b1-4)[Fuc(a1-3)]GlcNAc
# How it was run: as §1
# [30] = biological target: Fuc(a1-3)[Gal(b1-4)]GlcNAc(b1-4)Gal(b1-4)[Fuc(a1-3)]GlcNAc(b1-4)Gal(b1-4)[Fuc(a1-3)]GlcNAc
# How it was run: as §1
# [31] = biological target: Fuc(a1-3)[Gal(b1-4)]GlcNAc6S
# How it was run: as §1
# [32] = biological target: Fuc(a1-3)[Gal3S(b1-4)]Glc6S
# How it was run: as §1
# [33] = biological target: Fuc(a1-3)[Gal3S(b1-4)]GlcNAc
# How it was run: as §1
# [34] = biological target: Fuc(a1-3)[Gal3S(b1-4)]GlcNAc6S
# How it was run: as §1
# [35] = biological target: Fuc(a1-3)[GalNAc(b1-4)]GlcNAc
# How it was run: as §1
# Fuc(a1-4)GlcNAc = biological target: Fuc(a1-4)GlcNAc
# How it was run: as §1
binder,measurement,setting,value
B1,glycan array binding signal (z-score),Fuc(a1-2)Gal,0.42
same,glycan array binding signal (z-score),Fuc(a1-2)Gal(b1-3)GalNAc,0.764
same,glycan array binding signal (z-score),[1],-0.437
same,glycan array binding signal (z-score),[2],-0.206
same,glycan array binding signal (z-score),[3],-0.202
same,glycan array binding signal (z-score),Fuc(a1-2)Gal(b1-3)GlcNAc,-0.257
same,glycan array binding signal (z-score),[4],-0.482
same,glycan array binding signal (z-score),[5],-0.42
same,glycan array binding signal (z-score),Fuc(a1-2)Gal(b1-4)Glc,-0.561
same,glycan array binding signal (z-score),Fuc(a1-2)Gal(b1-4)Glc6S,0.623
same,glycan array binding signal (z-score),Fuc(a1-2)Gal(b1-4)GlcNAc,0.204
same,glycan array binding signal (z-score),[6],-0.865
same,glycan array binding signal (z-score),[7],-0.359
same,glycan array binding signal (z-score),[8],-0.362
same,glycan array binding signal (z-score),[9],-0.164
same,glycan array binding signal (z-score),[10],-0.367
same,glycan array binding signal (z-score),[11],1.02
same,glycan array binding signal (z-score),Fuc(a1-2)Gal6S(b1-4)Glc,-0.232
same,glycan array binding signal (z-score),[12],-0.001
same,glycan array binding signal (z-score),[13],0.219
same,glycan array binding signal (z-score),Fuc(a1-2)[Gal(a1-3)]Gal,0.317
same,glycan array binding signal (z-score),[14],-0.318
same,glycan array binding signal (z-score),[15],-0.482
same,glycan array binding signal (z-score),[16],-0.196
same,glycan array binding signal (z-score),[17],-0.199
same,glycan array binding signal (z-score),[18],0.063
same,glycan array binding signal (z-score),[19],-0.194
same,glycan array binding signal (z-score),[20],0.022
same,glycan array binding signal (z-score),[21],0.041
same,glycan array binding signal (z-score),[22],0.26
same,glycan array binding signal (z-score),[23],-0.361
same,glycan array binding signal (z-score),[24],0.347
same,glycan array binding signal (z-score),[25],0.044
same,glycan array binding signal (z-score),Fuc(a1-3)GlcNAc,-0.166
same,glycan array binding signal (z-score),[26],-0.224
same,glycan array binding signal (z-score),[27],-0.056
same,glycan array binding signal (z-score),[28],0.229
same,glycan array binding signal (z-score),[29],0.007
same,glycan array binding signal (z-score),[30],0.085
same,glycan array binding signal (z-score),[31],0.398
same,glycan array binding signal (z-score),[32],0.366
same,glycan array binding signal (z-score),[33],-0.325
same,glycan array binding signal (z-score),[34],0.422
same,glycan array binding signal (z-score),[35],-0.572
same,glycan array binding signal (z-score),Fuc(a1-4)GlcNAc,-0.237

# Reformatted bar-delimited: entries from further up
binder | measurement | setting | value
B1 | glycan array binding signal (z-score) | [28] | 0.229
same | glycan array binding signal (z-score) | [29] | 0.007
same | glycan array binding signal (z-score) | [30] | 0.085
same | glycan array binding signal (z-score) | [31] | 0.398

# — the supplement of paper PMC8728848
